Source: US10718772B2 (USTAV ORGANICKE CHEMIE A BIOCHEMIE AKADEMIE VED CR, V.V.I., priority 2014, dated 2020)

Assay: general procedure: Fmoc solid-phase peptide synthesis; 2-Chlortrityl chloride resin (Iris-Biotech); HOBt/DIC (printed 'HOBUDIC')
Details: conjugation step

## (21S,24S,27S,28S,32S,35S,36S)-1-((2,5-dioxopyrrolidin-1-yl)oxy)-28,36-dihydroxy-27,35-diisobutyl-21,24-diisopropyl-32-methyl-1,19,22,25,30,33-hexaoxo-4,7,10,13,16-pentaoxa-20,23,26,31,34-pentaazaoctatriacontan-38-oic acid, NHS-PEG5-pepstatin
  conjugation yield: 33%
Analytical HPLC
  final HPLC purity: well above 99%
